Measurements: patent US20230287071A1

molecular target: HLA-B*44:05 (human); test: UV peptide-exchange ELISA, yield grade

| binding | Binder |
| --- | --- |
| binds | SESSSFLKV [… (SEQ ID NO: 318)] |
| binds | SQYPHTHTF [… (SEQ ID NO: 284)] |
| binds | HELALRQTV [… (SEQ ID NO: 292)] |
| binds | DEYLIPQQGFF [… (SEQ ID NO: 297)] |
| binds | VEEEISRHY [… (SEQ ID NO: 283)] |
| binds | RRHPSFKRF [… (SEQ ID NO: 306)] |
| binds | TEHFLKKFF [… (SEQ ID NO: 288)] |
| binds | GEDAHLTQY [… (SEQ ID NO: 303)] |
| binds | KEWEREKAVSL [… (SEQ ID NO: 312)] |
| binds | AERIMFSDL [… (SEQ ID NO: 301)] |
| binds | EEWEWIQKL [… (SEQ ID NO: 294)] |
| binds | KEVASNSEL [… (SEQ ID NO: 298)] |
| binds | EEPKIDFRVY [… (SEQ ID NO: 308)] |
| binds | QEDEQLLLRF [… (SEQ ID NO: 293)] |
| binds | DQVTVFLHF [… (SEQ ID NO: 278)] |
| binds | AEKNRRDAETW [… (SEQ ID NO: 305)] |
| binds | QELEQEVISL [… (SEQ ID NO: 295)] |
| binds | GEPVTQPGSLL [… (SEQ ID NO: 279)] |
| binds | TEFQQIINL [… (SEQ ID NO: 317)] |

| binding | Binder |
| --- | --- |
| binds | SEYQDGKEF [… (SEQ ID NO: 276)] |
| binds | RELGFTEATGW [… (SEQ ID NO: 304)] |
| binds | VEFPATRSL [… (SEQ ID NO: 277)] |
| binds | KQTEATMTF [… (SEQ ID NO: 300)] |
| binds | AEHPDFSPCSF [… (SEQ ID NO: 285)] |
| binds | AAEPLVGQRW [… (SEQ ID NO: 280)] |
| binds | RLWPEPENW [… (SEQ ID NO: 316)] |
| binds | SDDLRNVTW [… (SEQ ID NO: 309)] |
| binds | YEQLLKVVTW [… (SEQ ID NO: 307)] |
| binds | KEFGIGDLVW [… (SEQ ID NO: 282)] |
| binds | AECILSKRL [… (SEQ ID NO: 290)] |
| binds | FELECPVKY [… (SEQ ID NO: 310)] |
| binds | EEINQGGRKY [… (SEQ ID NO: 313)] |
| binds | YEWEPFAEV [… (SEQ ID NO: 319)] |
| binds | REKDLPNYNW [… (SEQ ID NO: 311)] |
| binds | AETIFIVRL [… (SEQ ID NO: 296)] |
| binds | REVSVVDIL [… (SEQ ID NO: 287)] |
| binds | AEVQIARKL [… (SEQ ID NO: 299)] |
| binds | EGEDAHLTQY [… (SEQ ID NO: 302)] |

The remaining lines, values behind:

| Binder | binding |
| --- | --- |
| MEHSDENIQFW [… (SEQ ID NO: 19)] | binds |
| REDLVGPEV [… (SEQ ID NO: 271)] | binds |
| QEVAGYVLI [… (SEQ ID NO: 254)] | binds |
| DEQLLLRF [DEQLLLRF (SEQ ID NO: 291)] | binds |
| SEDLAVHL [SEDLAVHL (SEQ ID NO: 269)] | binds |
| SEAKEIKSQL [… (SEQ ID NO: 21)] | binds |
| AELDHLASL [… (SEQ ID NO: 250)] | binds |
| EDLAVHLY [EDLAVHLY (SEQ ID NO: 268)] | binds |
| MEQQSQEY [MEQQSQEY (SEQ ID NO: 315)] | binds |
| QEWDPQKTEKY [… (SEQ ID NO: 261)] | binds |
| HEIPQESL [HEIPQESL (SEQ ID NO: 281)] | binds |
| HEHGLFNLY [… (SEQ ID NO: 246)] | binds |
| VELEVPQL [VELEVPQL (SEQ ID NO: 267)] | binds |
| EDNLIHKF [EDNLIHKF (SEQ ID NO: 265)] | binds |
| IEVSSPITL [… (SEQ ID NO: 258)] | binds |
| TEEITEGVW [… (SEQ ID NO: 22)] | binds |
| QEAPRPASSL [… (SEQ ID NO: 18)] | binds |
| DESADSEPHKY [… (SEQ ID NO: 251)] | binds |
| KESMLKTTL [… (SEQ ID NO: 247)] | binds |
| SEIYQPRGF [… (SEQ ID NO: 17)] | binds |

| Binder | binding |
| --- | --- |
| DELSVGRY [DELSVGRY (SEQ ID NO: 286)] | binds |
| IEVSSPITLQAL [… (SEQ ID NO: 259)] | binds |
| EMREERKF [EMREERKF (SEQ ID NO: 314)] | binds |
| SEQNIQRANLF [… (SEQ ID NO: 272)] | binds |
| EEFIGKIGI [… (SEQ ID NO: 252)] | binds |
| EEEDRDGHTW [… (SEQ ID NO: 266)] | binds |
| YEMAIYKKY [… (SEQ ID NO: 249)] | binds |
| LEALLSDLF [… (SEQ ID NO: 20)] | binds |
| RELIKAIGL [… (SEQ ID NO: 264)] | binds |
| YENILNAI [YENILNAI (SEQ ID NO: 262)] | binds |
| TEFELLHQV [… (SEQ ID NO: 273)] | binds |
| RLLPGKVVW [… (SEQ ID NO: 256)] | binds |
| AEQLRGFNA [… (SEQ ID NO: 263)] | binds |
| VELMFPLLL [… (SEQ ID NO: 260)] | binds |
| NESDRLVYF [… (SEQ ID NO: 16)] | binds |
| QEILHGAVRF [… (SEQ ID NO: 253)] | binds |
| DEIDKLTGY [… (SEQ ID NO: 274)] | binds |
| KQWEYNEKLAF [… (SEQ ID NO: 255)] | binds |
| KESQLPTVMDF [… (SEQ ID NO: 248)] | binds |

No constants are given. Whether binding was seen depends on the method and setting. Binding can be weak; no strength is given.
